Results are given in words; binding and its absence hold for the method and conditions named. Binding seen in cells or lysates may run through a third protein. Some entries that bind do so weakly or less than the wild type.

We go through one molecule from PMC8854633.

In one test the target is Kdm6b (UniProt Q5NCY0). Description: co-IP; as a1, but Kdm6b, Isl1 and Lhx3 co-expressed together in HEK293 cells.
In test [1] the target is T1, Kdm6b N-terminal region (1-809 amino acids) (UniProt Q5NCY0).
T1 sequence: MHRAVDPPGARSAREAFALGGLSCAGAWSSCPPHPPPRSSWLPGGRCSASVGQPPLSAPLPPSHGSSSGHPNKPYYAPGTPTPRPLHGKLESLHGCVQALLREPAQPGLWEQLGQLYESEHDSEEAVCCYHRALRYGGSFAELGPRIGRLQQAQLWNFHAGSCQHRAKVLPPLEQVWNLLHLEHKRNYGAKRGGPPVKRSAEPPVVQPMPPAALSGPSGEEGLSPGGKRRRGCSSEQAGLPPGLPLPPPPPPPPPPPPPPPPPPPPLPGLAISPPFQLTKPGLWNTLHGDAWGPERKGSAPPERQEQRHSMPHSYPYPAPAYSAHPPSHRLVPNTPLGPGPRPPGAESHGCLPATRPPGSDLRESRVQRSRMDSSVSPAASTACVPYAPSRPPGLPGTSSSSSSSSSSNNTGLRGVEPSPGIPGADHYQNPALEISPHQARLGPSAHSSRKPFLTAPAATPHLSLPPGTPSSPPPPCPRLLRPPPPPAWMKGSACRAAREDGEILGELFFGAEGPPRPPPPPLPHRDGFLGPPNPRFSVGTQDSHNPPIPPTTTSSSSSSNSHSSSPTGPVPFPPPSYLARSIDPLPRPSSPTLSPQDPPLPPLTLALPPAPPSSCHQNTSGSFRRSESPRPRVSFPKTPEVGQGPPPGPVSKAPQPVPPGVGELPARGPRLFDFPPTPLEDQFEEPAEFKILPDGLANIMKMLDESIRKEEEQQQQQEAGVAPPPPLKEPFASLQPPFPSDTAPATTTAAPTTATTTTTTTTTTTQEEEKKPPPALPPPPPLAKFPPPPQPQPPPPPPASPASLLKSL
Description: co-IP; HEK293 cells transfected with two constructs (Lipofectamine 2000), harvested after 48 h in lysis buffer (20 mM Tris-HCl pH 8.0, 120 mM NaCl, 1 mM EDTA, 0.5% NP-40, protease inhibitors); 2 ug antibody overnight, Protein A agarose 2 h at 4 °C; immunoblot with HA or Flag antibodies.

In test [2] the target is Kdm6b C-terminal region (672-1642 amino acids) (UniProt Q5NCY0). The test is described as above.

B1: Lhx3 (protein, UniProt P50481 1-400)
chain: MLLEAELDCHRERPGAPGASALCTFSRTPEIPMCAGCDQHILDRFILKALDRHWHSKCLKCSDCHVPLAERCFSRGESVYCKDDFFKRFGTKCAACQLGIPPTQVVRRAQDFVYHLHCFACVVCKRQLATGDEFYLMEDSRLVCKADYETAKQREAEATAKRPRTTITAKQLETLKSAYNTSPKPARHVREQLSSETGLDMRVVQVWFQNRRAKEKRLKKDAGRQRWGQYFRNMKRSRGSSKSDKDSIQEGQDSDAEVSFTDEPSMADMGPANGLYSSLGEPAPALGRPVGGLGSFTLDHGGLTGPEQYRELRPGSPYGIPPSPAAPQSLPGPQPLLSSLVYPDTNLSLVPSGPPGGPPPMRVLAGNGPSSDLSTESSSGYPDFPASPASWLDEVDHAQF
As for B1, the binding result in the test with Kdm6b was “binds”; in test [1], “binds”; in test [2], “no binding”.
